Measured values as given in article doi:10.1101/406538 (bioRxiv, 2018).
Numbering of substitutions follows the chain as printed. Names and notes keep the numbering of the source. Results are given in words; binding and its absence hold for the method and conditions named. Some binding calls cover weakened binding; strength is not graded here. Sequences can lack the tags named with a protein.

T1: AUTOPHAGY8 isoform ATG8f, Gal4BD fusion (Arabidopsis thaliana) (UniProt Q8VYK7)
T1 sequence: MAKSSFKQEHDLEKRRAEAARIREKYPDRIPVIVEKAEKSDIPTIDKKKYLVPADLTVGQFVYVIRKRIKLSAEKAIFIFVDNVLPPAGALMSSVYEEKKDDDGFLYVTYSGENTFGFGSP

B1: ATG8 Interacting Protein 2 (ATI2), Gal4AD fusion (protein, UniProt Q8VY98 1-266)
chain: MADKDEAATRGNDWEVVSLTASAYAAAPGPKPVVDSKDDDHKEVTPCYEAETSHPLYMSRHFVFPPTGQLENTSDLTEASLTGSHCKEGSDLSLKGLDLSDDFGGLEFSEDKGKKEENIYTTAMSSLDDERAIGGSHVYEPVEEPTEPVSPSDVTLDLNPIKDDEVANSPPSEEAWWKRSVASLIAQAKETNTVWSICIAAAVMGIVILGQHWQQERWQILQQKWESSIGNEKAGRLMGPISRLKQAFVGGQRRDSFIRASAQNDR
B2: ATI2 mutated in the N-terminal putative AIM (ATI2-AIM W14A/V17A), Gal4AD fusion (protein, UniProt Q8VY98 1-266)
chain: B1 chain with W14A, V17A
B3: ATI2 mutated in the C-terminal putative AIM (ATI2-AIM W218A/L221A), Gal4AD fusion (protein, UniProt Q8VY98 1-266)
chain: B1 chain with W218A, L221A

The binders below were run against T1, AUTOPHAGY8 isoform ATG8f, Gal4BD fusion (Arabidopsis thaliana) (assay: two-hybrid).

binding | Binder
binds | B1
no binding | B2
binds | B3
